According to article PMC6347170:
No constants are given. Whether binding was seen depends on the method and setting. Binding seen in cells or lysates may run through a third protein. Some binding calls cover weakened binding; strength is not graded here. For some of these results: Tags and fused reporters may be left off the sequences shown.

T1: Sec61S353C (S. cerevisiae) (UniProt P32915)
T1 sequence: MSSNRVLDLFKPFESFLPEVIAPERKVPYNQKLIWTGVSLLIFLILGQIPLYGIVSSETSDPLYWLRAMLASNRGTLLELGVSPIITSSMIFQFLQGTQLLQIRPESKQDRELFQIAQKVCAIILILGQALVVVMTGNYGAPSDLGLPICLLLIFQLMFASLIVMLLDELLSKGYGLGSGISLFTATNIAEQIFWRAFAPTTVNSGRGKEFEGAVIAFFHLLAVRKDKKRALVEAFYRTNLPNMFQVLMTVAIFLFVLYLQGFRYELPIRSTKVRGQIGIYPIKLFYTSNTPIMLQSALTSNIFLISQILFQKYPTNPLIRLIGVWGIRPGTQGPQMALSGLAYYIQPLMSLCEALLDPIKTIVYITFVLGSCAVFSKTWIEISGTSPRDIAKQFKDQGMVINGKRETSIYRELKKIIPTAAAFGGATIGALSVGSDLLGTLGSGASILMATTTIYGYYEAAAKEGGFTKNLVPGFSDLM

T2: Sec61 (wildtype) (S. cerevisiae) (UniProt P32915)
T2 sequence: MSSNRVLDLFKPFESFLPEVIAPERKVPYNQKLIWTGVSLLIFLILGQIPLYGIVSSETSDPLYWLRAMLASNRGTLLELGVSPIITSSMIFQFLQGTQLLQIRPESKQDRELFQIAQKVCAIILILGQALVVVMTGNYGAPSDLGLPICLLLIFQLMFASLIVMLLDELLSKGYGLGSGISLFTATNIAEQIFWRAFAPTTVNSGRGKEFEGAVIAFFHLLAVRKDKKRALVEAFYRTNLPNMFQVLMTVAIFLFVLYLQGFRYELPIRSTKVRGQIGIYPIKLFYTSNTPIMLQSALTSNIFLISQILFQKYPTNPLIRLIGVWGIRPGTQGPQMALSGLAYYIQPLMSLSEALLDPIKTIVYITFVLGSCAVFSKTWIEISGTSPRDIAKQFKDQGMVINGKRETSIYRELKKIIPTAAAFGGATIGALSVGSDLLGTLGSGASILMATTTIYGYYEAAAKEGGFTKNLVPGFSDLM

T3: His14-Sec61S353C (S. cerevisiae) (UniProt P32915)
T3 sequence: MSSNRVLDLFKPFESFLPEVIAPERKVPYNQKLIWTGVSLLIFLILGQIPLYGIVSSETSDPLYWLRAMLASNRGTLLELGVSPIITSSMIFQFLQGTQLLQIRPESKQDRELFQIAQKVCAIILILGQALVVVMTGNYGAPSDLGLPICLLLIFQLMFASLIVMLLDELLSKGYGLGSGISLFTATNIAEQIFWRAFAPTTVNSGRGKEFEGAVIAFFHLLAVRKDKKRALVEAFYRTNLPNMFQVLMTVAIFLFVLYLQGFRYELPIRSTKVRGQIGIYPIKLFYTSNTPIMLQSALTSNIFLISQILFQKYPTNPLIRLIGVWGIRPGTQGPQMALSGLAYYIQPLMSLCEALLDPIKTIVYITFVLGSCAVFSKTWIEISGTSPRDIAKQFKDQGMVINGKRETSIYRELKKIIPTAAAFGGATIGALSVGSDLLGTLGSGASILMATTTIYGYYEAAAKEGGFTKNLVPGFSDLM


Assays:
[1] = target: T1, Sec61S353C (S. cerevisiae); test: cross-linking; yeast microsomes (17 eq) in B88 pH 7.2 crosslinked with 1 mM SMPH (non-cleavable) or LC-SPDP (cleavable), 30 min on ice; SDS-PAGE and immunoblot with anti-Sec61 N-terminus and anti-Sec63; also after urea (no effect) or carbonate extraction (reduced crosslinking to Sss1 and Sec63)
[2] = target: T2, Sec61 (wildtype) (S. cerevisiae); test: as above
[3] = target: T3, His14-Sec61S353C (S. cerevisiae); test: as above
[4] = target: T1, Sec61S353C (S. cerevisiae); test: cross-linking + co-IP; [35S]-labelled crude microsomes crosslinked with SMPH, LC-SPDP or SDAD, denatured, precipitated with anti-Sec61 N-terminus, crosslinker cleaved with DTT, released Mpd1-HA precipitated with anti-HA; phosphorimaging
[5] = target: T2, Sec61 (wildtype) (S. cerevisiae); test: as above

binding [1] | binding [2] | binding [3] | binding [4] | binding [5] | Binder
binds | binds | binds | – | – | Sss1 (protein, UniProt P35179 1-80) MARASEKGEEKKQSNNQVEKLVEAPVEFVREGTQFLAKCKKPDLKEYTKIVKAVGIGFIAVGIIGYAIKLIHIPIRYVIV
– | – | – | binds | binds | Mpd1-HA (protein, UniProt Q12404 22-318) QNFYDSDPHISELTPKSFDKAIHNTNYTSLVEFYAPWCGHCKKLSSTFRKAAKRLDGVVQVAAVNCDLNKNKALCAKYDVNGFPTLMVFRPPKIDLSKPIDNAKKSFSAHANEVYSGARTLAPIVDFSLSRIRSYVKKFVRIDTLGSLLRKSPKLSVVLFSKQDKISPVYKSIALDWLGKFDFYSISNKKLKQLTDMNPTYEKTPEIFKYLQKVIPEQRQSDKSKLVVFDADKDKFWEYEGNSINKNDISKFLRDTFSITPNEGPFSRRSEYIAYLKTGKKPIKKNHSSSGNKHDEL
binds | – | binds | – | – | Sec63 (protein, UniProt P14906 1-663) MPTNYEYDEASETWPSFILTGLLMVVGPMTLLQIYQIFFGANAEDGNSGKSKEFNEEVFKNLNEEYTSDEIKQFRRKFDKNSNKKSKIWSRRNIIIIVGWILVAILLQRINSNDAIKDAATKLFDPYEILGISTSASDRDIKSAYRKLSVKFHPDKLAKGLTPDEKSVMEETYVQITKAYESLTDELVRQNYLKYGHPDGPQSTSHGIALPRFLVDGSASPLLVVCYVALLGLILPYFVSRWWARTQSYTKKGIHNVTASNFVSNLVNYKPSEIVTTDLILHWLSFAHEFKQFFPDLQPTDFEKLLQDHINRRDSGKLNNAKFRIVAKCHSLLHGLLDIACGFRNLDIALGAINTFKCIVQAVPLTPNCQILQLPNVDKEHFITKTGDIHTLGKLFTLEDAKIGEVLGIKDQAKLNETLRVASHIPNLKIIKADFLVPGENQVTPSSTPYISLKVLVRSAKQPLIPTSLIPEENLTEPQDFESQRDPFAMMSKQPLVPYSFAPFFPTKRRGSWCCLVSSQKDGKILQTPIIIEKLSYKNLNDDKDFFDKRIKMDLTKHEKFDINDWEIGTIKIPLGQPAPETVGDFFFRVIVKSTDYFTTDLDITMNMKVRDSPAVEQVEVYSEEDDEYSTDDDETESDDESDASDYTDIDTDTEAEDDESPE
